Assay results taken from PubChem BioAssay AID504834 (National Center for Advancing Translational Sciences (NCATS), 2011).
Among all 320,000 compounds or so, about 22,000 (6.9%) were called active. The shares of active, inactive and inconclusive entries below differ from those in the screen. Calls follow the shape of the dose curve; as a rule, active = well fitted inhibition curve with a large enough effect; inconclusive = small, poorly fitted or top-dose-only effect, or another doubt; inactive = no such curve, though single readings can be large or run the other way. Potencies of inconclusive entries are doubtful fits and often do not repeat.

assay: Primary qHTS for delayed death inhibitors of the malarial parasite plastid, 96 hour incubation; conditions: P. falciparum luciferase reporter growth; series mostly up to 28.7 µM; activity change, negative = inhibition: at the top concentration
How it was run: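 Plates of compound plus infected erythrocytes (2% hematocrit, 0.05% parasitemia final) incubate 96 hours, 37 C, 5% CO2. Detection reagent added; reduced luminescence from the parasites' luciferase reporter flags inhibition.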
% is scaled to controls: 0 for no effect and ±100 for the full control effect; potency is read from the fitted curve at half-maximal effect.

SMILES	Potency	activity change, negative = inhibition
CCN(CC)C(=O)Oc1ccc(NC(=O)N2CCOCC2)cc1	inconclusive: 2.62 µM [inhibitor, partial curve, poor fit]	
CC(Oc1ccc(Cl)cc1)c1ccnn1S(C)(=O)=O (centres undefined)	inconclusive: 18.5 µM [inhibitor, single point]	
CCOc1ccc(NS(=O)(=O)c2ccc3ncsc3c2)cc1	active: 3.7 µM	
CCOCCCNC(=O)c1cccc(NC(=O)C2=C(C)OCCS2)c1	inconclusive: 18.5 µM [inhibitor, single point]	
O=c1[nH]n2c(=O)c3c([nH]c2c1N=Nc1cccc(Cl)c1)CCC3	inconclusive: 16.5 µM [inhibitor, single point]	
O=C1C(=O)c2ccccc2C(O)=C1CCCCl	active: 1.85 µM	
CN(C)c1ccc(CNC(=O)C2CCN(S(=O)(=O)c3ccc4c(c3)CCCC(=O)N4)CC2)cc1	inconclusive: 18.5 µM [inhibitor, single point]	
CCOC(=O)C1=C(COC(=O)c2ccc(Cl)cc2[N+](=O)[O-])NC(=O)NC1C (centres undefined)		inactive: 34.7%
Cc1ccc2nc(N(CCCN(C)C)C(=O)c3ccco3)sc2c1		inactive: -9.5%
COc1ccccc1/C=C/c1nc2ccc(OC(C)=O)cc2c(=O)o1	active: 1.65 µM	
CC(C)(C)C(=O)Nc1ccc(C(=O)CN2C(=O)NC3(CCOc4ccccc43)C2=O)cc1 (centres undefined)	inconclusive: 11.7 µM [inhibitor, partial curve, poor fit]	
O=C(Nc1c(-c2ccccc2)nc2ccccn12)c1ccccc1		inactive: -29.6%
COc1cccc(Cn2cnc3c(NS(=O)(=O)c4ccc(Cl)cc4Cl)c(C)c(C)cc32)c1		inactive: 0.0461%
CC(=O)Nc1ccc(NC(=O)c2c([N+](=O)[O-])cnn2C)cc1	inconclusive: 20.8 µM [inhibitor, partial curve, poor fit]	
O=C(NCC1COCCO1)c1ccc2nc(Cc3cccc(Cl)c3)oc2c1 (centres undefined)	inconclusive: 11.7 µM [inhibitor, single point]	
O=C(Nc1cccc(C(=O)NC2CC2)c1)c1ccc(Cl)c(S(=O)(=O)N2CCOCC2)c1	active: 13.1 µM	
COc1ccccc1NS(=O)(=O)c1ccc(O)cc1	inconclusive: 0.0329 µM [inhibitor, full curve, poor fit]	
COc1ccc(Cc2nc3ccc(C(=O)N(C)CCO)cc3o2)cc1		inactive: -33.8%
Cc1ccc(-c2cccc(C3CC=CC4C3C(=O)N(Cc3ccccc3)C4c3ccc(C(F)(F)F)cc3)c2)cc1 (centres undefined)	inconclusive: 4.15 µM [inhibitor, single point]	
CN(CC(=O)Nc1ccc(Cl)cc1)C(=O)Cc1c(F)cccc1Cl	active: 11.7 µM	
Cc1ccccc1-c1cc(C(=O)NCc2cccs2)n(CC2CC(c3cccnc3)=NO2)n1 (centres undefined)	inconclusive: 3.29 µM [inhibitor, single point]	
COCCn1c(-c2ccccc2)csc1=Nc1cccnc1	inconclusive: 11.7 µM [inhibitor, single point]	
CCOCCCNC(=O)C1CCCN(S(=O)(=O)c2cccc3nsnc23)C1 (centres undefined)	active: 8.28 µM	

Single records, as listed above.
O=C1C(=O)c2ccccc2C(O)=C1CCCCl as listed: Potency: active: 1.85 µM
Cc1ccc(-c2cccc(C3CC=CC4C3C(=O)N(Cc3ccccc3)C4c3ccc(C(F)(F)F)cc3)c2)cc1 (centres undefined) as listed: Potency: inconclusive: 4.15 µM [inhibitor, single point]

Following part:

SMILES	Potency	activity change, negative = inhibition
CSCCC(Nc1ccc(S(=O)(=O)N2CCOCC2)cc1[N+](=O)[O-])C(=O)OCC(=O)N(C(C)C)C(C)C (centres undefined)	inconclusive: 4.15 µM [inhibitor, partial curve, poor fit]	
Cc1cccc(NC(=O)C(NS(=O)(=O)c2ccc3c(c2)CCC(=O)N3)c2ccccc2)n1 (centres undefined)	active: 10.4 µM	
CC(C)NC(=O)c1ccc2c(c1)N(CC(=O)N1CCCC1)C(=O)C(C)(C)O2	inconclusive: 18.5 µM [inhibitor, single point]	
COc1ccc(N(CC(=O)NCCc2ccc(S(N)(=O)=O)cc2)S(=O)(=O)c2c(C)noc2C)cc1	inconclusive: 14.7 µM [inhibitor, single point]	
CC1(C)c2cc(O)ccc2OC1N1CCOCC1 (centres undefined)	inconclusive: 18.5 µM [inhibitor, single point]	
O=C(Nc1ccc(Cl)cn1)Nc1ccccc1Cl		inactive: 1.57%
O=C(Nc1ccccc1N1CCCCC1)c1ccc(-c2cccc(Cl)c2)o1	inconclusive: 10.4 µM [inhibitor, partial curve, poor fit]	
O=C(N/N=C/c1ccc[nH]1)c1ccc(COc2cccc3cccnc23)cc1	inconclusive: 7.38 µM [inhibitor, single point]	
O=C(Nc1ccccc1)N1CCCC(c2nc(-c3ccc(F)cc3)no2)C1 (centres undefined)	inconclusive: 0.0329 µM [inhibitor, full curve, poor fit]	
CS(=O)(=O)N1CCN(c2ccccc2NC(=O)c2cccc3ccccc23)CC1	inconclusive: 8.28 µM [inhibitor, single point]	
CCCNC(=O)OC[C@H]1O[C@H](CCO/N=C/c2ccc(C(=O)N3[C@H](c4ccc(C)cc4)[C@@H](C)CC[C@H]3C(=O)OC)cc2)C=C[C@@H]1Oc1ccc(OC)cc1	active: 2.08 µM	
Cc1cccc(C)c1NC(=O)C1CCN(S(C)(=O)=O)CC1	inconclusive: 1.65 µM [inhibitor, single point]	
CC(C)OCC1CO1 (centres undefined)		inactive: 36%
O=C(O)[C@H]1CCCC[C@H]1C(=O)Nc1cc([N+](=O)[O-])ccc1F	inconclusive: 18.5 µM [inhibitor, single point]	
CC1CCCN(S(=O)(=O)c2ccc(NC(=O)Cc3ccc(S(=O)(=O)N4CCOCC4)s3)cc2)C1 (centres undefined)	active: 7.38 µM	
O=C(N/N=C\C=C\c1ccc2c(c1)OCO2)c1ccc(F)cc1		inactive: -4.57%
Cc1cc2c(cc1S(=O)(=O)CCC(=O)N(C)C1CCCCC1)OCC(=O)N2		inactive: -4.91%
O=C(/C=C/c1ccco1)N1CCN(c2ccccc2)CC1		inactive: -9.71%
Cc1nc2sccn2c(=O)c1S(=O)(=O)N1CCN(c2cccc(Cl)c2)CC1	inconclusive: 9.28 µM [inhibitor, partial curve, poor fit]	
CCc1cc2c(=O)n3c(nc2s1)-c1[nH]c2ccc(OC)cc2c1CC3	active: 2.94 µM	
CCOCCN1CCN(c2nnc3n2-c2ccc(Cl)cc2C(c2ccccc2Cl)=NC3)CC1	inconclusive: 10.4 µM [inhibitor, single point]	
CCCCN(CC)CCNC(=O)c1cc2c(C)nc3ccccc3c2o1		inactive: 11%
CCOc1ccc(N(C(=O)c2snc(C(N)=O)c2N)C(C(=O)NCC2CCCO2)c2ccco2)cc1 (centres undefined)		inactive: 10.1%

SMILES	Potency	activity change, negative = inhibition
COc1ccc(/C=C/C(=O)N2CCCc3ccccc32)cc1		inactive: 66.7%
Cc1nnc2ccc(-c3cccc(NS(=O)(=O)c4ccccc4[N+](=O)[O-])c3)nn12	active: 2.94 µM	
CN1CCCN(C(=O)c2ccc(Cl)s2)CC1	inconclusive: 18.5 µM [inhibitor, partial curve, poor fit]	
O=C(CSc1nccn1-c1ccccc1)Nc1ccc2c(c1)OCO2		inactive: 48.8%
CCOC(=O)C1CCN(S(=O)(=O)c2c(C)[nH]c(C)c2C(=O)N2CCCC2)CC1	inconclusive: 5.22 µM [inhibitor, partial curve, poor fit]	
CNC(=S)NNC(=O)c1cccn(Cc2ccccc2)c1=O	inconclusive: 2.62 µM [inhibitor, single point]	
Cc1cc(NC(=O)NC(=O)c2ccc(F)cc2F)n[nH]1	inconclusive: 18.5 µM [inhibitor, single point]	
O=C1CN(C(=O)c2c(F)cccc2F)C(c2ccccc2)c2cc(Br)ccc2N1 (centres undefined)		inactive: -10.8%
COc1ccc(C(=O)CC(=O)c2ccc(C)cc2)c(O)c1	inconclusive: 18.5 µM [inhibitor, single point]	
CCN(CC)S(=O)(=O)c1ccc(N2CC(C(=O)NCc3cccnc3)CC2=O)cc1 (centres undefined)		inactive: -27.6%
O=C(Nc1ccccc1)Nc1ccccc1NS(=O)(=O)c1cccs1	inconclusive: 8.28 µM [inhibitor, single point]	
Cc1cccc(N2CCN(c3ccc(N4C(=O)CCCC4=O)cc3[N+](=O)[O-])CC2C)c1 (centres undefined)	inconclusive: 9.28 µM [inhibitor, partial curve]	
C=CCNC(=O)c1ccccc1CCc1ccccc1		inactive: 23.4%
CN(C)S(=O)(=O)c1ccc(N2CCCC2)c(C(=O)Nc2nc(-c3ccc(F)c(F)c3)cs2)c1	active: 10.4 µM	
CCn1c(C)nc2cc(C(=O)N=Nc3c(O)[nH]c4ccccc34)ccc21		inactive: 30%
O=S(=O)(CCN1CCN(C(c2ccccc2)c2ccccc2)CC1)C(F)(F)F	inconclusive: 1.65 µM [inhibitor, partial curve, poor fit]	
O=C(NCc1ccccn1)c1cc(-c2ccccc2)on1	inconclusive: 0.828 µM [inhibitor, partial curve, poor fit]	
CC1CN(C(=O)Nc2ccc(Br)cc2Cl)CC(C)O1 (centres undefined)	inconclusive: 2.62 µM [inhibitor, partial curve, poor fit]	
CCc1ccc(C(=O)c2cc3ccc(O)cc3oc2=O)cc1	inconclusive: 18.5 µM [inhibitor, single point]	
CC/C(O)=C1\C(=O)CCCC1=NCCc1nc2ccccc2[nH]1	inconclusive: 2.94 µM [inhibitor, full curve, poor fit]	
Cc1ccc(CSC(Nc2ccc(F)cc2)=C(C#N)C#N)cc1	inconclusive: 18.5 µM [inhibitor, single point]	
COc1cc2c(cc1OC)C1O[C@](CCCCN3C(=O)c4ccccc4C3=O)(C2)Oc2cc(C)n(Cc3ccccc3)c(=O)c21	active: 2.39 µM	
O=C(CCS(=O)(=O)Cc1ccc(Cl)cc1)NCCCN1CCN(c2ccccc2F)CC1	inconclusive: 11.7 µM [inhibitor, single point]	

3 structures already listed, arranged by formula weight, low to high:
SMILES	Potency	activity change, negative = inhibition
CCc1ccc(C(=O)c2cc3ccc(O)cc3oc2=O)cc1	inconclusive: 18.5 µM [inhibitor, single point]	
O=C(CSc1nccn1-c1ccccc1)Nc1ccc2c(c1)OCO2		inactive: 48.8%
Cc1nnc2ccc(-c3cccc(NS(=O)(=O)c4ccccc4[N+](=O)[O-])c3)nn12	active: 2.94 µM	
